Data reported in PubChem BioAssay AID445 (National Center for Advancing Translational Sciences (NCATS), 2006).
The other results are listed elsewhere or left out. Shown are side measurements of this screen, not its main read-out; they come without a call. Most of these compounds were active or inconclusive in the main read-out, so they are no random draw. The note in brackets gives the kind of curve behind each potency; many fits are weak.

Assay: IkB Signaling
Conditions: ABC-DLBCL IkBa-CBG/CBR dual luciferase ratio (green luciferase fused to IkBa over red control in OCI-Ly3 lymphoma cells), 4 h; measured here: control luc red channel unless noted
Outline: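 Luminescence ratio of IκBα-fused green versus native red beetle luciferase in OCI-Ly3 cells, 4 h post-doxycycline with compound; red signal alone, scaled from basal (0%) to zero light (-100%), flagged nonspecific or cytotoxic effects.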

SMILES: CCc1ccccc1Nc1ccc(C(=O)O)cc1N
- AC50: 15.8 µM [falling, partial curve]

SMILES: O=S(=O)(c1cccc(F)c1)N1CCC(Oc2ccc(-n3cnnn3)cc2)CC1
- AC50: 2.51 µM [falling, partial curve]

SMILES: CCc1ccc(S(=O)(=O)c2c(C(=O)c3ccccc3)cnc3ccc(CC)cc23)cc1
- AC50: 7.94 µM [falling, partial curve]

SMILES: COc1ccccc1CN1CCC(CNC(=O)c2cnn(-c3ccc(Cl)cc3)c2C2CCN(C(=O)OC(C)(C)C)CC2)CC1
- AC50: 15.8 µM [falling, single point]

SMILES: CC(C)c1ccc(OCC(O)CN2CCN(c3ccc(F)cc3)CC2)cc1 (configuration not stated)
- AC50: 10 µM [falling, partial curve]

SMILES: Cc1ccccc1NC(=O)c1ccc(Cl)c(S(=O)(=O)N2CCCCCC2)c1
- AC50: 12.6 µM [falling, partial curve]

SMILES: CCSc1nnc(NC(=O)c2ccc(C)o2)s1
- AC50: 10 µM [falling, partial curve]

SMILES: CCc1ccccc1NC(=O)c1cc(-c2ccc3c(c2)OCO3)on1
- AC50: 6.31 µM [falling, partial curve]

SMILES: Cc1ccc(C)c(-c2nc3ccc(N)cc3[nH]2)c1
- AC50: 12.6 µM [falling, partial curve]

SMILES: O=c1c(-c2ccc(O)cc2)coc2cc(O)ccc12
- AC50: 39.8 nM [falling, full curve] [measured here: IkB-luc green channel]

SMILES: Cc1ccc(O)c(C2=Nc3ccccc3N=C(c3cccc(F)c3)C2)c1
- AC50: 12.6 µM [falling, partial curve]

SMILES: O=C(Nc1ccc(C(=O)N2CCN(c3ccc(Cl)cc3)CC2)cc1)c1nsc2ccccc12
- AC50: 0.0316 µM [falling, full curve]

SMILES: CCOC(=O)NCCc1c(C)nc2c(c(C)nn2C(C)(C)C)c1C
- AC50: 39.8 µM [falling, single point]

SMILES: Fc1ccc(Nc2nc(Nc3ccc(F)cc3)nc(N3CCOCC3)n2)cc1
- AC50: 7.94 µM [falling, partial curve]

SMILES: CCCCn1c(SCC(=O)Nc2ccc(F)cc2)nc2c(sc3ccccc32)c1=O
- AC50: 31.6 µM [rising, partial curve, poor fit]

SMILES: COc1ccc(C2C(CC(=O)O)=C(O)C(=O)N2c2ccccc2)cc1 (configuration not stated)
- AC50: 2 µM [falling, full curve]

SMILES: O=C(CSc1nnc(-c2ccc(Br)cc2)n1-c1ccccc1)c1ccccc1
- AC50: 0.398 µM [falling, partial curve, poor fit]

SMILES: CCOC(=O)C1CCN(C(=O)COc2cc(C)c(Br)c(C)c2)CC1
- AC50: 0.251 µM [falling, full curve]

SMILES: COc1ccc(NC(=O)C(=O)NCC2(c3ccccc3)CCCC2)c(OC)c1
- AC50: 25.1 µM [falling, single point]

SMILES: CC(=O)N1CCc2cc(Br)cc(S(=O)(=O)CCC(=O)Nc3ccc(C)cc3Cl)c21
- AC50: 25.1 µM [falling, partial curve, poor fit]

SMILES: CCc1c(C)c2ccc(O)c(CN3CCN(c4ccccc4)CC3)c2oc1=O
- AC50: 6.31 µM [rising, partial curve]

SMILES: CCN1CCN(c2cc(C)c3cc(NC(=O)c4ccccc4F)ccc3n2)CC1
- AC50: 15.8 µM [falling, single point]

SMILES: CC(C)c1ccc2oc(=O)cc(CN3CCN(c4ccc(F)cc4)CC3)c2c1
- AC50: 15.8 µM [falling, partial curve]

SMILES: Cc1nn(Cc2ccccc2Cl)c(C)c1C(=O)N1CCN(c2ccccc2)CC1
- AC50: 31.6 µM [falling, partial curve]

SMILES: Cc1cncn1CCc1nc2c3ccccc3nc(SCC(=O)Nc3ccccc3F)n2n1
- AC50: 20 µM [rising, partial curve]

SMILES: O=C(c1ccc(CS(=O)(=O)c2c(Cl)cccc2Cl)o1)N1CCN(c2ccccc2)CC1
- AC50: 25.1 µM [falling, partial curve]

SMILES: Cc1ccc(-n2c(SCC(N)=O)nc3c([nH]c4ccccc43)c2=O)cc1
- AC50: 1.58 µM [rising, full curve, poor fit]

SMILES: Cc1ccc(Nc2nc(N3CCOCC3)c3ccccc3n2)cc1
- AC50: 39.8 µM [falling, single point]

SMILES: COC(=O)c1sc(NC(=O)c2ccoc2C)nc1C
- AC50: 15.8 µM [falling, partial curve]

SMILES: Cc1ccc(Cl)cc1N1CCN(c2ncnc3onc(-c4ccc(F)cc4)c23)CC1
- AC50: 31.6 µM [falling, single point]

SMILES: CCOC(=O)N1CCN(C(=O)CN(c2cc(C)ccc2OC)S(=O)(=O)c2ccc(C)cc2)CC1
- AC50: 10 µM [falling, partial curve]

SMILES: Cc1ccc(-c2nnc(Nc3cccc(C(F)(F)F)c3)c3ccccc23)cc1S(=O)(=O)N1CCOCC1
- AC50: 5.01 µM [falling, full curve]
